Article PMC3253115
These are yes or no findings as the source states them, for the method shown. In cells and extracts the contact can be indirect. Some entries that bind do so weakly or less than the wild type.

Sequences of proteins named here, by UniProt entry; tags and fusion partners are left off. A change or cut given only in a name is not applied to a line headed by its entry. A line that says so, or that is headed by a name, gives the form on record, which may keep a tag or linker. Residues count along the entry.
Myc-tagged TH1 wild type phosphorylated at Tyr-6 by co-expressed c-Src (Y527F) (Q8IXH7, residues 10-590): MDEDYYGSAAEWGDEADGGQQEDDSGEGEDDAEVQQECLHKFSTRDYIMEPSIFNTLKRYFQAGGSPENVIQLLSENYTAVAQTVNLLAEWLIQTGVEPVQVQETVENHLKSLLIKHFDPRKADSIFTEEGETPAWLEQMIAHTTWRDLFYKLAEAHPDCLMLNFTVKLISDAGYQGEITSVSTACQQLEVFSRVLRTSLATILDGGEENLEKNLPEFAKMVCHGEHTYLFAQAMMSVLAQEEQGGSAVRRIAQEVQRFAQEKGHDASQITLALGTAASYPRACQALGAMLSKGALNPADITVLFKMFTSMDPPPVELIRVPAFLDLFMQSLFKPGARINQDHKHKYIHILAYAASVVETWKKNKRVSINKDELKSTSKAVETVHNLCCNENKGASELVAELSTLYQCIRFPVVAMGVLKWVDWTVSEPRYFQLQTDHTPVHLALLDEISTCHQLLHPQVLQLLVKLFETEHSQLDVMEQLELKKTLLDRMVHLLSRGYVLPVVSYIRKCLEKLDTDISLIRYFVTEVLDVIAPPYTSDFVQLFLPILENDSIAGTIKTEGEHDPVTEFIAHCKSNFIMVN
Myc-tagged TH1 Y6F (Q8IXH7, form named): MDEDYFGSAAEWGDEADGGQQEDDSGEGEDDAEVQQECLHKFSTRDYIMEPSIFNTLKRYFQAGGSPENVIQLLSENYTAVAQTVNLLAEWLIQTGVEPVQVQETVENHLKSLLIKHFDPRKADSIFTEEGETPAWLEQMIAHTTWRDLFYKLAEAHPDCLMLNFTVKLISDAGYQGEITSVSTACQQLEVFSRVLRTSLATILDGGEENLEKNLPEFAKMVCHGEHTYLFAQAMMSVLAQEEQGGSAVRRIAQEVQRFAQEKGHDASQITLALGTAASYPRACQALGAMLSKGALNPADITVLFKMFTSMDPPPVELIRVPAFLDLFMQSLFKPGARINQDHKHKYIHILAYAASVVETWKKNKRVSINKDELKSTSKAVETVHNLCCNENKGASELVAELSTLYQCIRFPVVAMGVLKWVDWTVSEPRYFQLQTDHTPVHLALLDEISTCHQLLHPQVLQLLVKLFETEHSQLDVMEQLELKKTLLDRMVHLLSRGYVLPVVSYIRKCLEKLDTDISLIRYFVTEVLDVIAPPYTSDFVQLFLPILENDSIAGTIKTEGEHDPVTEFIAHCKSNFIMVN
UniProt Q13153: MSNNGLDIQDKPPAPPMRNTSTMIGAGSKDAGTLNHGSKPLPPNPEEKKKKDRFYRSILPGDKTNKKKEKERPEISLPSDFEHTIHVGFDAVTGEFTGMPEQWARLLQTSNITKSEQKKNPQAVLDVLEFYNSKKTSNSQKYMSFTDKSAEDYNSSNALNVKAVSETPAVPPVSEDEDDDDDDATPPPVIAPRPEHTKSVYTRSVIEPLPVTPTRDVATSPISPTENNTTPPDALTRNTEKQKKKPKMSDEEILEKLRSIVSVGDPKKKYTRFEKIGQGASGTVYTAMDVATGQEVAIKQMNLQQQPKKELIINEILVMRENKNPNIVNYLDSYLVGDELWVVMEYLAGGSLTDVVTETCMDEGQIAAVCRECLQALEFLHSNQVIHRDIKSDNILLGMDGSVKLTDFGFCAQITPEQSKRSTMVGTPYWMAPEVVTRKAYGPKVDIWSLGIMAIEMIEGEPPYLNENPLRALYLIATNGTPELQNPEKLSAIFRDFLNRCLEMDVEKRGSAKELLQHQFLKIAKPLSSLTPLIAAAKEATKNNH

How the values were obtained:
Assay in all cases: co-IP; HeLa cells transfected with HA-A-Raf and Myc-TH1-WT or Myc-TH1-Y6F, with c-Src (Y527F) or control vector; 36 h after transfection IP with anti-Myc antibodies, blot with anti-HA or anti-PAK1
[1] = molecular target: Myc-tagged full length TH1 wild type (human) (UniProt Q8IXH7)
[2] = molecular target: Myc-tagged TH1 wild type phosphorylated at Tyr-6 by co-expressed c-Src (Y527F) (human) (UniProt Q8IXH7)
[3] = molecular target: Myc-tagged TH1 Y6F (human) (UniProt Q8IXH7)

Measured: binding

PAK1, endogenous in HeLa cells (from UniProt Q13153 1-545) (enzyme)
binds: all assays above
